Test results as given in the supplement of paper PMC6078165.
The reference is the same well before dosing, and untreated signal decays as well.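 Fibroblast labels denote human fibroblasts, mainly primary ones from uterus (C12385, HUF), lung (H6013), bone (Hs27A), adrenal (HADF) and skin (WS1), plus mammary HMF and breast cancer-associated Hs343T. Cancer cells are basal-like or mesenchymal-like triple-negative breast cancer lines. A hit is a response shift exceeding 3x replicate standard deviation. The tissue of the other fibroblasts is not given here.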

Tested on: BT20
Test: relative JC-1 red fluorescence (viability) vs pre-drug, coculture with fibroblast (fraction); higher = more viable cancer cells
Protocol: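 JC-1 labelled TNBC cells cocultured 1:1 (1,500 cells each) with CellTrace Violet stained primary or stromal fibroblasts in 384-well plates in FluoroBrite medium, treated with one of 42 anticancer drugs at 0.1, 1, 10 or 100 uM. JC-1 red fluorescence (mitochondrial integrity in cancer cells only) was read by plate reader every 8 h for 72 h. Values are normalised to each well's pre-drug value. The stock of one drug was tenfold lower, so its dose labels may be too high.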

O=C(O)C1(C(=O)O)CCC1.[NH2-].[NH2-].[Pt+2] [Carboplatin]
relative JC-1 red fluorescence
Conditions	8 h	16 h	24 h	32 h	40 h	48 h	56 h	64 h	72 h
10 µM, coculture fibroblast: C12385	0.895	0.783	0.7233	0.655	0.603	0.57	0.538	0.51333	0.487
10 µM, coculture fibroblast: H6013	0.96193	0.869	0.854	0.82	0.777	0.761	0.757	0.745	0.731
10 µM, coculture fibroblast: H6019	0.886	0.808	0.766	0.714	0.675	0.661	0.633	0.596	0.568
10 µM, coculture fibroblast: H6076	0.859	0.897	0.812	0.783	0.753	0.728	0.71	0.709	0.691
10 µM, coculture fibroblast: H6231	0.857	0.928	0.8	0.7465	0.687	0.638	0.591	0.554	0.517
10 µM, coculture fibroblast: HADF	0.807	0.91	0.81	0.786	0.739	0.682	0.652	0.623	0.584
10 µM, coculture fibroblast: HCFa	0.926	0.864	0.788	0.829	0.766	0.679	0.777	0.75	0.703
10 µM, coculture fibroblast: HCPF	0.8	0.9259	0.8287	0.777	0.7252	0.6734	0.626	0.6098	0.5642
10 µM, coculture fibroblast: HHSteC	0.91967	0.8201	0.799	0.723	0.674	0.644	0.623	0.602	0.564
10 µM, coculture fibroblast: HMF	0.858	0.907	0.815	0.772	0.719	0.66	0.633	0.594	0.553
10 µM, coculture fibroblast: HPFa	0.92	0.8433	0.826	0.744	0.693	0.638	0.605	0.561	0.502
10 µM, coculture fibroblast: HUF	0.8948	0.78	0.737	0.66	0.606	0.577	0.553	0.531	0.502
10 µM, coculture fibroblast: Hs5	0.738	0.869	0.911	0.864	0.834	0.803	0.776	0.749	0.724
10 µM, coculture fibroblast: Hs27A	0.899	0.954	0.873	0.877	0.8204	0.803	0.781	0.749	0.7
10 µM, coculture fibroblast: Hs343T	0.92	0.887	0.763	0.693	0.635	0.592	0.541	0.523	0.479
10 µM, coculture fibroblast: WS1	0.891	0.782	0.729	0.664	0.6	0.572	0.542	0.508	0.492
100 µM, coculture fibroblast: C12385	0.85982	0.8107	0.787	0.726	0.671	0.632	0.603	0.572	0.541
100 µM, coculture fibroblast: H6013	0.831	0.81	0.832	0.779	0.813	0.742	0.869	0.906	0.888
100 µM, coculture fibroblast: H6019	0.852	0.803	0.802	0.752	0.721	0.703	0.654	0.639	0.629
100 µM, coculture fibroblast: H6076	0.948	0.88	0.8279	0.788	0.764	0.734	0.734	0.731	0.709
100 µM, coculture fibroblast: H6231	0.945	0.859	0.774	0.707	0.641	0.589	0.55	0.521	0.496
100 µM, coculture fibroblast: HADF	0.931	0.884	0.845	0.765	0.749	0.83	0.725	0.762	0.795
100 µM, coculture fibroblast: HCFa	0.931	0.924	0.888	0.818	0.742	0.733	0.676	0.731	0.756
100 µM, coculture fibroblast: HCPF	0.95739	0.869	0.80716	0.76	0.7094	0.6711	0.6207	0.599	0.568
100 µM, coculture fibroblast: HHSteC	0.89143	0.863	0.8509	0.791	0.747	0.711	0.691	0.674	0.65
100 µM, coculture fibroblast: HMF	0.949	0.843	0.753	0.693	0.635	0.563	0.501	0.466	0.427
100 µM, coculture fibroblast: HPFa	0.918	0.92	0.79	0.865	0.841	0.802	0.784	0.761	0.721
100 µM, coculture fibroblast: HUF	0.877	0.804	0.782	0.695	0.633	0.58	0.552	0.54	0.524
100 µM, coculture fibroblast: Hs5	0.9928	0.903	0.8366	0.79603	0.757	0.692	0.6514	0.643	0.613
100 µM, coculture fibroblast: Hs27A	0.913	0.9786	0.965	0.9157	0.8941	0.9102	0.927	0.9407	0.9
100 µM, coculture fibroblast: Hs343T	0.989	0.874	0.767	0.674	0.567	0.469	0.368	0.313	0.256
100 µM, coculture fibroblast: WS1	0.8312	0.785	0.762	0.681	0.617	0.576	0.535	0.525	0.5068
